These are literature values, as cited in publication PMC9149975, “The diaryl-imidazopyridazine anti-plasmodial compound, MMV652103, exhibits anti-breast cancer activity” (EXCLI Journal, 2022).

The structures appear in SMILES notation.

For orientation: IC50 means the concentration that gives 50% inhibition.

This data set deals with MCF7 cells. Set-up: method as in Yang et al., 2013. The conditions noted are these: ref Yang et al., 2013, read-out: reported IC50 of doxorubicin; cited from earlier work.

As for `COc1cccc2c1C(=O)c1c(O)c3c(c(O)c1C2=O)C[C@@](O)(C(=O)CO)C[C@@H]3O[C@H]1C[C@H](N)[C@H](O)[C@H](C)O1` [Doxorubicin, reference compound], the IC50 was 9.84 nM.
